Experimental data taken from the supplement of paper PMC12067093, “Discovery and optimisation of a covalent ligand for TRIM25 and its application to targeted protein ubiquitination” (Chemical Science, 2025).
This is one part of the list.

Compound: CC1Cc2ccccc2N1C(=O)C1CCCN(C1)C(=O)CCl (mixture of isomers) [TRIM25 ligand 11 (diastereomer mixture)]
Assay: probe-labelled cysteine peptide fold change vs DMSO (competition) (log2 fold change); higher = less target engagement (more negative = stronger competition)
Settings: THP-1, incubation time: 4 h
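Also: competitive chemoproteomic profiling in live THP-1 cells with an iodoacetamide desthiobiotin (IA-DTB) probe, comparing probe-labelled peptide intensities in compound-treated cells against DMSO-treated controls.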

Row | Target | probe-labelled cysteine peptide fold change (10 µM) | probe-labelled cysteine peptide fold change (50 µM)
1 | ZBTB11_O95625_214_LSNQFCDVTLLIEGEEYK (UniProt O95625) | 0.0844 | 0.161
2 | XPNPEP1_Q9NQW7_48_NSEYVTEPIQAYIIPSGDAHQSEYIAPCDCRR (UniProt Q9NQW7) | 0.208 | -0.287
3 | YY1AP1_Q9H869_734_QCQEGLSENSAYR (UniProt Q9H869) | -0.00384 | 0.0743
4 | ZBTB11_O95625_796_HLGVKPFQCQFCDK (UniProt O95625) | -0.121 | -0.24
5 | ZC3HAV1_Q7Z2W4_798_AYVESICSNNFDSFLHETHENK (UniProt Q7Z2W4) | 0.0747 | 0.0853
6 | ZCCHC3_Q9NUD5_178_ICFQGDEGACPTR (UniProt Q9NUD5) | 0.0949 | 0.145
7 | ZBTB34_Q8NCN2_402_LHMGITPFVCK (UniProt Q8NCN2) | -0.0027 | 0.0821
8 | ZC3H13_Q5T200_1592_ASLLSNLGPCCK (UniProt Q5T200) | 0.0171 | -0.128
9 | ZBTB43_O43298_450_HVTSCTK (UniProt O43298) | 0.0113 | -0.159
10 | ZFAND1_Q8TCF1_28+33_DFLPFVCDDCSGIFCLEHR (UniProt Q8TCF1) | 0.0867 | -0.272
11 | YWHAG_P61981_194_LGLALNYSVFYYEIQNAPEQACHLAK (UniProt P61981) | 0.0779 | 0.178
12 | YY1_P25490_390_IHTGDRPYVCPFDGCNK (UniProt P25490) | 0.0873 | 0.212
13 | ZC3HC1_Q86WB0_406_LCSSSSSDTSSR (UniProt Q86WB0) | -0.0222 | -0.106
14 | XRCC5_P13010_296_ETVYCLNDDDETEVLKEDIIQGFR (UniProt P13010) | -0.169 | -0.0628
15 | YWHAG_P61981_112_NCSETQYESK (UniProt P61981) | 0.0918 | -0.0332
16 | YWHAZ_P63104_25_YDDMAACMK (UniProt P63104) | -0.0733 | -0.144
17 | XPO1_O14980_99_NQCEGIK (UniProt O14980) | 0.0271 | 0.0716
18 | ZDHHC21_Q8IVQ6_106_SHHCSR (UniProt Q8IVQ6) | 0.476 | 0.232
19 | XPO6_Q96QU8_22_ALESLMTEFFHDCTTNER (UniProt Q96QU8) | 0.0182 | 0.00177
20 | ZBTB14_O43829_215_VNCYGQEVESMETPESK (UniProt O43829) | 0.0401 | -0.356
21 | XPO6_Q96QU8_159_TTSEELACPR (UniProt Q96QU8) | 0.0366 | -0.0732
22 | XPNPEP3_Q9NQH7_492_IEDDVVVTQDSPLILSADCPK (UniProt Q9NQH7) | -0.0184 | -0.0977
23 | ZBTB2_Q8N680_296_VPLTLCSNAADLGK (UniProt Q8N680) | -0.0308 | -0.0339
24 | XRCC5_P13010_339_CFSVLGFCK (UniProt P13010) | -0.0923 | 0.0299
25 | ZDHHC13_Q8IUH4_51_EALPLIEDSSNCDIVK (UniProt Q8IUH4) | 0.118 | -0.32
26 | ZC3HC1_Q86WB0_190_FQSLCHLDLQLPSLRPEDLK (UniProt Q86WB0) | 0.379 | 0.19

Row | Target | probe-labelled cysteine peptide fold change (10 µM) | probe-labelled cysteine peptide fold change (50 µM)
27 | ZC3HAV1L_Q96H79_121_DCWSTCTLSHDIHTPVNMQVLK (UniProt Q96H79) | -0.0523 | -0.0862
28 | YARS_P54577_67_AGCEVTILFADLHAYLDNMK (UniProt P54577) | 0.171 | 0.25
29 | XRCC5_P13010_249_HSIHWPCR (UniProt P13010) | 0.141 | 0.0697
30 | YME1L1_Q96TA2_433_ANAPCVIFIDELDSVGGK (UniProt Q96TA2) | 0.021 | 0.104
31 | XRCC5_P13010_296_ETVYCLNDDDETEVLK (UniProt P13010) | 0.12 | 0.087
32 | ZDHHC6_Q9H6R6_295_EGCHQYSLTIEQLK (UniProt Q9H6R6) | 0.124 | -0.0875
33 | ZC3H11A_O75152_588_SVLTPLRGDVASCNTQVAEKPVLTAVPGITR (UniProt O75152) | -0.0522 | -0.241
34 | YARS2_Q9Y2Z4_413_EAPFSEFFLDPGTSVLDTCR (UniProt Q9Y2Z4) | 0.154 | 0.109
35 | ZC3H11A_O75152_636_CAAQTLEK (UniProt O75152) | -0.086 | -0.217
36 | YWHAQ_P27348_94_SICTTVLELLDK (UniProt P27348) | -0.0784 | 0.132
37 | XPO6_Q96QU8_547_LNITAENDCR (UniProt Q96QU8) | 0.178 | -0.0408
38 | ZBTB7A_O95365_490_DGCNGVPSR (UniProt O95365) | -0.0599 | 0.0996
39 | ZDHHC12_Q96GR4_102_YCLVLQPLR (UniProt Q96GR4) | -0.0174 | -0.0218
40 | ZC3H14_Q6PJT7_634_CLFVHPNCK (UniProt Q6PJT7) | -0.00424 | -0.0967
41 | YJU2_Q9BW85_275_AKADPDCSNGQPQAAPTPGAPQNR (UniProt Q9BW85) | -0.0979 | -0.295
42 | ZC3H11A_O75152_588_GDVASCNTQVAEK (UniProt O75152) | -0.0193 | -0.169
43 | ZBTB1_Q9Y2K1_532_HSACPFR (UniProt Q9Y2K1) | -0.06 | 0.0188
44 | XRN2_Q9H0D6_296_GKHDELADSLPCAEGEFIFLR (UniProt Q9H0D6) | 0.0997 | -0.0177
45 | ZC3H12D_A2A288_266_CTYGIK (UniProt A2A288) | 0.0719 | 0.0733
46 | ZCCHC10_Q8TBK6_58_CLEFGHWTYECTGK (UniProt Q8TBK6) | 0.0113 | 0.188
47 | XRN2_Q9H0D6_736_FSLDEEAILPDQIVCSPVPMLR (UniProt Q9H0D6) | 0.234 | 0.0197
48 | XRCC3_O43542_310_LREEEAALGCPAR (UniProt O43542) | 0.0756 | -0.0559
49 | XPNPEP1_Q9NQW7_46_NSEYVTEPIQAYIIPSGDAHQSEYIAPCDCRR (UniProt Q9NQW7) | 0.362 | -0.0759
50 | YDJC_A8MPS7_294_AQLAQDGVQLCALDDLDSK (UniProt A8MPS7) | 0.0361 | -0.222
51 | XRN1_Q8IZH2_598_NQHSECLMCWYDRDTEFIYPSPWPEK (UniProt Q8IZH2) | 0.0745 | 0.142
52 | ZC3H7A_Q8IWR0_98_IACYSNMGFHDK (UniProt Q8IWR0) | -0.0854 | -0.0318

Row | Target | probe-labelled cysteine peptide fold change (10 µM) | probe-labelled cysteine peptide fold change (50 µM)
53 | ZC3HAV1L_Q96H79_15_VLCAHGGR (UniProt Q96H79) | 0.293 | 0.102
54 | XPOT_O43592_650_QASLADCLNHAVGFASR (UniProt O43592) | 0.0855 | 0.048
55 | XRCC1_P18887_615_WIYSCNEK (UniProt P18887) | -0.00921 | 0.0387
56 | ZC3H13_Q5T200_1643_TTCHAPGHEK (UniProt Q5T200) | -0.0244 | -0.0669
57 | ZC3HAV1L_Q96H79_99+108_GECQACDQLHFCR (UniProt Q96H79) | -0.032 | 0.0459
58 | ZCCHC7_Q8N3Z6_296_MLDHSCLFR (UniProt Q8N3Z6) | -0.11 | -0.228
59 | YRDC_Q86U90_256_FGIIRPGCALESTTAILQQK (UniProt Q86U90) | 0.0417 | 0.0046
60 | ZCCHC3_Q9NUD5_385_RGHAFAQCPK (UniProt Q9NUD5) | -0.0589 | 0.0741
61 | ZC3H7A_Q8IWR0_894_VFHTEDDQYCWQHR (UniProt Q8IWR0) | 0.0296 | -0.0746
62 | XPO5_Q9HAV4_941_SLLCGEDEAADENPESQEMLEEQLVR (UniProt Q9HAV4) | -0.212 | -0.177
63 | ZC3H10_Q96K80_140_EEVPICR (UniProt Q96K80) | 0.122 | 0.208
64 | XPO6_Q96QU8_324_NCVPMEFEEYLLR (UniProt Q96QU8) | 0.124 | -0.0486
65 | YME1L1_Q96TA2_433_ANAPCVIFIDELDSVGGKR (UniProt Q96TA2) | -0.109 | -0.361
66 | XPO4_Q9C0E2_492_IAAEHCIPLLTSLLEER (UniProt Q9C0E2) | 0.157 | -0.117
67 | XPOT_O43592_900_QTFDLADAQTVLALSECAVTLK (UniProt O43592) | 0.0433 | 0.155
68 | ZC3H12D_A2A288_260_KPKPPEPSWQHCPYGK (UniProt A2A288) | 0.0945 | 0.169
69 | ZC3H15_Q8WU90_105_SVVCAFFK (UniProt Q8WU90) | -0.0728 | -0.107
70 | XPO4_Q9C0E2_723_ANLVIQCENWWNLAK (UniProt Q9C0E2) | 0.0686 | -0.105
71 | XPO4_Q9C0E2_1149_SLEEFMANVGGLLCVK (UniProt Q9C0E2) | -0.0589 | 0.185
72 | ZC3H7B_Q9UGR2_617_QFQEHFQFDVCR (UniProt Q9UGR2) | 0.176 | 0.249
73 | XXYLT1_Q8NBI6_350_LFHVLDCTWNR (UniProt Q8NBI6) | 0.0272 | 0.0636
74 | ZC3H11A_O75152_588_GDVASCNTQVAEKPVLTAVPGITR (UniProt O75152) | -0.141 | -0.211
75 | XPO5_Q9HAV4_977_EVMDLITVCCVSK (UniProt Q9HAV4) | -0.0798 | 0.0186
76 | XRN2_Q9H0D6_715_HHPLHDFILELYQTGSTEPVEVPPELCHGIQGK (UniProt Q9H0D6) | -0.0378 | -0.0762
77 | YY1_P25490_385_IHTGDRPYVCPFDGCNKK (UniProt P25490) | -0.226 | -0.103
78 | YES1_P07947_255_LTTVCPTVKPQTQGLAK (UniProt P07947) | -0.0129 | -0.34
